Binding data for two molecules are collected here from doi:10.1101/2024.07.24.604958.

Results are given in words; binding and its absence hold for the method and conditions named. For some assays here: In cells and extracts the contact can be indirect. Some binding calls cover weakened binding; strength is not graded here.

The target of test [1] is T1, CIB2 (calcium and integrin-binding protein 2), wild type (mouse) (UniProt Q9Z309).
T1 sequence: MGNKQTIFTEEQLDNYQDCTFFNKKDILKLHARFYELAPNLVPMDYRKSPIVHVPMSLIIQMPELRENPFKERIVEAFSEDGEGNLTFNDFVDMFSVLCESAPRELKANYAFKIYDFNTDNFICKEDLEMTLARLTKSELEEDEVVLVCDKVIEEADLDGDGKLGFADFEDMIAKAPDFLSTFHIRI
The experiment in a line: ITC. In general terms: In ITC the heat of successive injections is recorded.

Test [2] deals with T2, full-length TMC1 expressed in HEK 293 cells (mouse) (UniProt Q8R4P5).
T2 sequence: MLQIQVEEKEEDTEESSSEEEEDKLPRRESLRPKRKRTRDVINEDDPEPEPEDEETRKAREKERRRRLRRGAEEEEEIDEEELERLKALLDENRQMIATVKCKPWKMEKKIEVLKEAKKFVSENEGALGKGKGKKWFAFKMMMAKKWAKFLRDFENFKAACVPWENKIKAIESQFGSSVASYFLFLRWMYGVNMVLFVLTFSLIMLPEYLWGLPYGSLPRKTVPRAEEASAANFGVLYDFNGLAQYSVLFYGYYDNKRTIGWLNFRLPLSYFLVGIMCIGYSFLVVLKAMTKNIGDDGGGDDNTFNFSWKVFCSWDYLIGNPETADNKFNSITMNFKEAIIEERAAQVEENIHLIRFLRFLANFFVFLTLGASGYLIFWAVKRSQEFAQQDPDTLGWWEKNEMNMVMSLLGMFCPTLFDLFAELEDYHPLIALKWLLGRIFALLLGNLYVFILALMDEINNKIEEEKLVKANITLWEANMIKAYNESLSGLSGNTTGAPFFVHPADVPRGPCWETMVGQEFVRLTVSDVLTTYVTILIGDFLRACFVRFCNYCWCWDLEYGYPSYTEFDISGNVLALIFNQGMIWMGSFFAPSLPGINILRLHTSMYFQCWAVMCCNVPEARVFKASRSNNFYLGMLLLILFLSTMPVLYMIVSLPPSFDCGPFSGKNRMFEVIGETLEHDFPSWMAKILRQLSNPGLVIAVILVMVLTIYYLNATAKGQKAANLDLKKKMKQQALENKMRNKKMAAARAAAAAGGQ
The experiment in a line: co-IP.

On to KGQKAANLDLKKKMKQQALENKMRNKKMAAARAAAAAGGQ (domain or fragment, UniProt Q8R4P5 718-757) [TMC1 cytosolic region 3 (CR3, amino acids 718-757)], for which the binding entry in test [1] is on record as “no binding (condition: with 10 mM CaCl2)”.

B1: CIB2 expressed in HEK 293 cells (protein, UniProt Q9Z309 1-187)
chain: T1 sequence
On to B1, for which the binding result in test [2] is recorded as “binds”.
